These are yes or no findings as the source states them, for the method shown. In cells and extracts the contact can be indirect. A result given as binding can be weak or reduced; the word gives no strength.
Target: mCherry-IQSec1 (human) (UniProt Q6DN90)
Assay: co-IP; lysates of HEK-293 cells co-expressing mCherry-IQSec1 (WT or mutants) and GFP-ORP3 (WT or mutants); immunoprecipitated with anti-mCherry antibody and protein A beads, NP-40 lysis buffer, 4°C; probed for GFP

Chains of the proteins cited; added tags and fusions are not shown. Lines headed by an entry give the natural chain unless they say otherwise; changes in a name come on top. A line that says so, or that is headed by a name, gives the form on record, which may keep a tag or linker.
mCherry-IQSec1 (Q6DN90, form named): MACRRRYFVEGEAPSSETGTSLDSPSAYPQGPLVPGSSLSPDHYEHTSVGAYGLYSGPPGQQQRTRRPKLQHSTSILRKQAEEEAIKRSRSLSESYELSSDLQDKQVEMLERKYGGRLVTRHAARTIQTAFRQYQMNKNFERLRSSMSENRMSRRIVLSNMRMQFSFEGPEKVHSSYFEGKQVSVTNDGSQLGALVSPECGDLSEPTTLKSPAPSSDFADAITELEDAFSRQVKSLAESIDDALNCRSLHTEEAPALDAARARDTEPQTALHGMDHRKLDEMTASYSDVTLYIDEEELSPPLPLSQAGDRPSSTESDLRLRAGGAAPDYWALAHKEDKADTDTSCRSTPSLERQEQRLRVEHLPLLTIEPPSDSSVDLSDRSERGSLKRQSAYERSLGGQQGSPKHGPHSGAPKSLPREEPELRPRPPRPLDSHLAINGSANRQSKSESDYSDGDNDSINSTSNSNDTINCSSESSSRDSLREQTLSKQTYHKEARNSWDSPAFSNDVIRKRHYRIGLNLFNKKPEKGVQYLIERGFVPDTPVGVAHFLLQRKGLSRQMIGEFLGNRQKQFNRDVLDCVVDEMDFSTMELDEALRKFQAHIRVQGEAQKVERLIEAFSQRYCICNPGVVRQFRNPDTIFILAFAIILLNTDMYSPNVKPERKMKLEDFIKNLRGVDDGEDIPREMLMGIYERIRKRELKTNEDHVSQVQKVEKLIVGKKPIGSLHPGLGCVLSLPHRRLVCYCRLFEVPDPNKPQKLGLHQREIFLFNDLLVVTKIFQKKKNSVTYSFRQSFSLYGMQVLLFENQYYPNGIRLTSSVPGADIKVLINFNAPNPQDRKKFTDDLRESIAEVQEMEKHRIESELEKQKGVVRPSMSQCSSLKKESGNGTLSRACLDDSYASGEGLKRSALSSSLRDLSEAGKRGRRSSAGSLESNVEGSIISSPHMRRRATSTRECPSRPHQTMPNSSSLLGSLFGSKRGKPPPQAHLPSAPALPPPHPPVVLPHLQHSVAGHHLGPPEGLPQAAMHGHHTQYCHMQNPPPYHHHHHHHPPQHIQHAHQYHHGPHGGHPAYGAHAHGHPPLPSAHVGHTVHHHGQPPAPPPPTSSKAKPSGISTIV
UniProt Q9H4L5: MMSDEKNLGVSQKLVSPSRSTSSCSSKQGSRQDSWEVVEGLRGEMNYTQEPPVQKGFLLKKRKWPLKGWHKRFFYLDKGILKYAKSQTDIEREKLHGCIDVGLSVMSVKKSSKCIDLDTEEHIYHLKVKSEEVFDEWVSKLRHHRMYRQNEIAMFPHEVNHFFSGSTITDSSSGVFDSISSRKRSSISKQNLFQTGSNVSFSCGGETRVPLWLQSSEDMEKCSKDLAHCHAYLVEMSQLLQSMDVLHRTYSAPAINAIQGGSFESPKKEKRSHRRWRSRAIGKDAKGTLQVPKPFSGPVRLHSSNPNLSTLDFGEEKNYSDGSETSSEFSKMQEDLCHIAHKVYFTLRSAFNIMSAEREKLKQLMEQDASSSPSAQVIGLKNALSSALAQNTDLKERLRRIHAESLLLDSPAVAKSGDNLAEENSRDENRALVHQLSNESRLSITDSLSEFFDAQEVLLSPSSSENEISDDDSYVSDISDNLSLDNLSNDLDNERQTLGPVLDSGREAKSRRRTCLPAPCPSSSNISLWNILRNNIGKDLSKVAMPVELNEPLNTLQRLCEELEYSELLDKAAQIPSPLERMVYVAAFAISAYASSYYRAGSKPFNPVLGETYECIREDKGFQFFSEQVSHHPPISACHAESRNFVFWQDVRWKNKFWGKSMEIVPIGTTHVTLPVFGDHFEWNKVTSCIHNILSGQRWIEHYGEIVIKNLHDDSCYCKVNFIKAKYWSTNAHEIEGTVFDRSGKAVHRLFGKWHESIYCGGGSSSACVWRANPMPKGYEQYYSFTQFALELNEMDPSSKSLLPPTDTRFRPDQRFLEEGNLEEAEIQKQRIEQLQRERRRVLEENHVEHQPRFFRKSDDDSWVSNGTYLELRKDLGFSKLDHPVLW

For GFP-ORP3Δ^FFAT (from UniProt Q9H4L5), the binding was “binds”.
